Results published in the supplement of paper PMC7661543.
± gives the standard deviation of the averaged measurements. Differences between knockout arms are mostly noise.

Test system: ZR-75-1
Assay: relative cell number vs DMSO control (72 h) (% of DMSO); higher = less growth inhibition (more cells)
Protocol: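 QMAP-Seq: a pool of 5 breast cancer cell lines (ZR-75-1, SKBR3, HCC-38, MDA-MB-231, BT-20), each carrying 12 doxycycline-inducible Cas9 sgRNA perturbations (11 knockouts plus non-targeting sgNT), was treated with compounds for 72 h at four 10-fold doses (10 nM-10 uM or 1 nM-1 uM range). Barcodes were amplified and sequenced, and cell number was interpolated from 293T spike-in standard curves. The result is expressed as % of the median of DMSO wells. Two biological replicates.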

[1] = sgRNA knockout: sgATF3, 1000 nM
[2] = sgRNA knockout: sgATF3, 10000 nM
[3] = sgRNA knockout: sgATF4, 1000 nM
[4] = sgRNA knockout: sgATF4, 10000 nM
[5] = sgRNA knockout: sgATF6, 1000 nM
[6] = sgRNA knockout: sgATF6, 10000 nM
[7] = sgRNA knockout: sgATG7, 1000 nM
[8] = sgRNA knockout: sgATG7, 10000 nM
[9] = sgRNA knockout: sgERN1, 1000 nM
[10] = sgRNA knockout: sgERN1, 10000 nM
[11] = sgRNA knockout: sgHSF2, 1000 nM
[12] = sgRNA knockout: sgHSF2, 10000 nM
[13] = sgRNA knockout: sgNFE2L2, 10 nM
[14] = sgRNA knockout: sgNFE2L2, 100 nM
[15] = sgRNA knockout: sgNFE2L2, 1000 nM
[16] = sgRNA knockout: sgNFE2L2, 10000 nM
[17] = sgRNA knockout: sgSLC35F2, 10 nM
[18] = sgRNA knockout: sgSLC35F2, 100 nM
[19] = sgRNA knockout: sgSLC35F2, 1000 nM
[20] = sgRNA knockout: sgSLC35F2, 10000 nM
[21] = sgRNA knockout: sgXBP1, 1000 nM
[22] = sgRNA knockout: sgXBP1, 10000 nM

| Compound | relative cell number (sgRNA knockout: sgATF3, 10 nM) | relative cell number (sgRNA knockout: sgATF3, 100 nM) | relative cell number [1] | relative cell number [2] | relative cell number (sgRNA knockout: sgATF4, 10 nM) | relative cell number (sgRNA knockout: sgATF4, 100 nM) | relative cell number [3] | relative cell number [4] | relative cell number (sgRNA knockout: sgATF6, 10 nM) | relative cell number (sgRNA knockout: sgATF6, 100 nM) | relative cell number [5] | relative cell number [6] | relative cell number (sgRNA knockout: sgATG7, 10 nM) | relative cell number (sgRNA knockout: sgATG7, 100 nM) | relative cell number [7] | relative cell number [8] | relative cell number (sgRNA knockout: sgERN1, 10 nM) | relative cell number (sgRNA knockout: sgERN1, 100 nM) | relative cell number [9] | relative cell number [10] | relative cell number (sgRNA knockout: sgHSF2, 10 nM) | relative cell number (sgRNA knockout: sgHSF2, 100 nM) | relative cell number [11] | relative cell number [12] | relative cell number [13] | relative cell number [14] | relative cell number [15] | relative cell number [16] | relative cell number [17] | relative cell number [18] | relative cell number [19] | relative cell number [20] | relative cell number (sgRNA knockout: sgXBP1, 10 nM) | relative cell number (sgRNA knockout: sgXBP1, 100 nM) | relative cell number [21] | relative cell number [22] |
| --- | --- | --- | --- | --- | --- | --- | --- | --- | --- | --- | --- | --- | --- | --- | --- | --- | --- | --- | --- | --- | --- | --- | --- | --- | --- | --- | --- | --- | --- | --- | --- | --- | --- | --- | --- | --- |
| C[C@@H](Nc1cc(F)cc(F)c1)c1cc(C(=O)N(C)C)cc2c(=O)cc(N3CCOCC3)oc12 [AZD8186] | 124 ± 50 | 88.7 ± 29 | 104 ± 13 | 60.1 ± 8.9 | 98.78 ± 0.38 | 118 ± 32 | 88.6 ± 16 | 59.3 ± 10 | 82.7 ± 19 | 66.7 ± 2.4 | 92.5 ± 35 | 88 ± 28 | 63 ± 0.65 | 98.7 ± 7.5 | 67.8 ± 1.9 | 57.9 ± 7.8 | 87.1 ± 8.4 | 112 ± 37 | 72 ± 0.9 | 46.3 ± 6.4 | 85.6 ± 38 | 88 ± 4.6 | 65.8 ± 14 | 65.4 ± 9.5 | 92.4 ± 41 | 74.4 ± 3.6 | 83.5 ± 5.6 | 53.2 ± 2.6 | 113 ± 2.7 | 128 ± 19 | 103 ± 19 | 70.2 ± 31 | 92.9 ± 8.2 | 78.7 ± 10 | 88.3 ± 4 | 52.6 ± 7.7 |
| Cc1ccccc1-n1c(Cn2cnc3c(N)ncnc32)nc2cccc(C)c2c1=O | 104 ± 7.2 | 123 ± 20 | 103 ± 13 | 97.3 ± 14 | 110 ± 26 | 138 ± 28 | 102 ± 40 | 102 ± 24 | 98 ± 2.5 | 136 ± 24 | 69.6 ± 1.3 | 88.9 ± 22 | 98.3 ± 18 | 108 ± 27 | 69.6 ± 28 | 95.9 ± 14 | 85.7 ± 17 | 114 ± 47 | 93.4 ± 9.7 | 114 ± 24 | 90.2 ± 9.2 | 97.1 ± 22 | 74.1 ± 9.5 | 91.9 ± 1.4 | 118 ± 15 | 118 ± 54 | 89.5 ± 3.4 | 106 ± 9.5 | 116 ± 22 | 140 ± 11 | 106 ± 66 | 96.5 ± 12 | 87.3 ± 6.8 | 104 ± 36 | 75.4 ± 12 | 98.7 ± 11 |
| COc1cc2nccc(Oc3ccc(NC(=O)Nc4cc(C)on4)c(Cl)c3)c2cc1OC [Tivozanib] | 82.3 ± 43 | 98.2 ± 23 | 95 ± 4.6 | 54.8 ± 26 | 117 ± 17 | 109 ± 16 | 86.2 ± 12 | 43.1 ± 3.4 | 107 ± 50 | 79.79 ± 0.33 | 122 ± 26 | 39 ± 16 | 84.3 ± 33 | 109 ± 2.5 | 72.4 ± 14 | 38.1 ± 4 | 84.3 ± 23 | 97.864 ± 0.054 | 83.6 ± 22 | 53.8 ± 1.9 | 126 ± 7.7 | 115 ± 21 | 102 ± 15 | 43.2 ± 11 | 104 ± 16 | 113 ± 14 | 120 ± 6.7 | 39.2 ± 4.4 | 82 ± 38 | 108 ± 1.1 | 102 ± 18 | 41.1 ± 24 | 110 ± 31 | 98.1 ± 3.3 | 108 ± 7.2 | 42.5 ± 4.5 |
| O=P1(N(CCCl)CCCl)NCCCO1 (configuration not stated) [Cyclophosphamide] | 123 ± 18 | 89.8 ± 31 | 107 ± 25 | 98.6 ± 2.5 | 107 ± 14 | 105 ± 52 | 91.5 ± 20 | 67.7 ± 15 | 78.5 ± 5.7 | 99.8 ± 3.6 | 89.1 ± 7 | 90.5 ± 4 | 103 ± 71 | 81.1 ± 8.4 | 100 ± 56 | 93.3 ± 5.8 | 98 ± 2.3 | 103.9 ± 0.9 | 93.7 ± 39 | 91.8 ± 32 | 104 ± 19 | 102 ± 11 | 93.6 ± 11 | 91.7 ± 6.4 | 140 ± 11 | 104 ± 10 | 78.4 ± 6.4 | 118 ± 12 | 104 ± 11 | 101 ± 23 | 105 ± 26 | 84.1 ± 14 | 116 ± 2.6 | 99.13 ± 0.92 | 97.5 ± 32 | 91.4 ± 10 |
| CC(=O)Nc1cccc(-n2c(=O)n(C3CC3)c(=O)c3c(Nc4ccc(I)cc4F)n(C)c(=O)c(C)c32)c1 [Trametinib] | 108 ± 27 | 87.6 ± 20 | 94 ± 3 | 53.4 ± 18 | 99.1 ± 36 | 71.7 ± 1.3 | 69.2 ± 44 | 51.6 ± 10 | 74.6 ± 49 | 65.1 ± 54 | 64.4 ± 20 | 48.6 ± 4.5 | 112 ± 40 | 70.1 ± 15 | 59.1 ± 5.5 | 42.9 ± 0.57 | 92.4 ± 16 | 64.5 ± 5.1 | 68 ± 18 | 55.6 ± 13 | 89.5 ± 22 | 76.3 ± 9.9 | 76.8 ± 22 | 57.3 ± 3.2 | 105 ± 13 | 76 ± 10 | 55.3 ± 7.4 | 43.3 ± 0.2 | 93.1 ± 31 | 89.3 ± 27 | 74.1 ± 52 | 35.7 ± 12 | 98 ± 2.2 | 81.6 ± 8.4 | 57.3 ± 12 | 41.7 ± 3.1 |
| Nc1ccccc1NC(=O)c1ccc(CNC(=O)OCc2cccnc2)cc1 [Entinostat] | 144 ± 22 | 116 ± 3.8 | 29.8 ± 7.2 | 33.3 ± 3.2 | 123 ± 45 | 154 ± 76 | 37.1 ± 4.8 | 40.1 ± 10 | 85.7 ± 20 | 125 ± 32 | 33.6 ± 4.5 | 30.4 ± 9.3 | 101 ± 30 | 128 ± 26 | 27.5 ± 4.3 | 36 ± 5.8 | 103 ± 4.8 | 94.8 ± 13 | 43.2 ± 17 | 30.9 ± 14 | 119 ± 6.2 | 105 ± 6.3 | 33 ± 2.4 | 36.4 ± 0.59 | 98.2 ± 8.2 | 122 ± 15 | 32.9 ± 5.6 | 31 ± 7.4 | 98.8 ± 75 | 129 ± 86 | 56.4 ± 6.9 | 30.8 ± 24 | 91.5 ± 7 | 107 ± 9.7 | 41.7 ± 1.6 | 28.1 ± 5.8 |
| CC(C)(C)c1cnc(CSc2cnc(NC(=O)C3CCNCC3)s2)o1 [SNS032] | 77.3 ± 11 | 90.8 ± 6.4 | 9.54 ± 2.5 | 23.953 ± 0.019 | 118 ± 28 | 112 ± 16 | 20.6 ± 6.4 | 22.7 ± 4 | 74.8 ± 14 | 69.1 ± 56 | 5.77 ± 1.4 | 20.5 ± 7.9 | 99.3 ± 2.6 | 79.8 ± 1.1 | 10.21 ± 0.08 | 28.9 ± 15 | 112 ± 12 | 87.4 ± 1.8 | 15.48 ± 0.053 | 34.3 ± 6.5 | 109 ± 18 | 89.5 ± 3.5 | 14.7 ± 2.8 | 24.4 ± 3.2 | 126 ± 34 | 80.3 ± 11 | 11.8 ± 1.7 | 27.9 ± 4.1 | 89.5 ± 53 | 68.1 ± 0.85 | 19 ± 13 | 10 ± 4.3 | 113 ± 31 | 92.1 ± 9 | 14.1 ± 1.4 | 23 ± 3.1 |
